Protein sequences, listed by entry. Tags and fused reporters are not part of them. Lines headed by an entry give the natural chain unless they say otherwise; changes in a name come on top. Residues count along the entry.
UniProt Q96GS4: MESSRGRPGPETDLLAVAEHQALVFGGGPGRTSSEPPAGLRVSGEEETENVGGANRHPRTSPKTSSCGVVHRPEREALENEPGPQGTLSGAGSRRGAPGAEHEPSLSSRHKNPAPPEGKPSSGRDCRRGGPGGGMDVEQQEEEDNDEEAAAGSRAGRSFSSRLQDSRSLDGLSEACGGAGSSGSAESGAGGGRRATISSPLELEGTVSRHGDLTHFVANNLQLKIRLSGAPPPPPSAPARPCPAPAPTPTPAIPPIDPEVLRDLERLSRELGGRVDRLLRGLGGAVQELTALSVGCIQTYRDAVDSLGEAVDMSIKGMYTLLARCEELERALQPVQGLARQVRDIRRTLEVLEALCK
UniProt Q9BTU6: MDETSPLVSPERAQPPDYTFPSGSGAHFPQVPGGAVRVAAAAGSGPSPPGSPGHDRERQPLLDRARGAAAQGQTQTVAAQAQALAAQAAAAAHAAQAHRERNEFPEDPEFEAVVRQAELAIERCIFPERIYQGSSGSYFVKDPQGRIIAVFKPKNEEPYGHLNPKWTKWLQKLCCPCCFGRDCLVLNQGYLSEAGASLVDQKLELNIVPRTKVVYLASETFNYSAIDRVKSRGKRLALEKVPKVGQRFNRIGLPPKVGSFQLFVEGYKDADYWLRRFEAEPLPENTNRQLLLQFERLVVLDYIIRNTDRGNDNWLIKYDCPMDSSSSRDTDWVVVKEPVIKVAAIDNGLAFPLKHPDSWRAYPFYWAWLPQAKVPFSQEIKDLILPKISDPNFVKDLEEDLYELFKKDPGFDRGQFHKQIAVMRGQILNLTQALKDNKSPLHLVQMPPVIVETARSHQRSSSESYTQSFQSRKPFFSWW
UniProt Q15836: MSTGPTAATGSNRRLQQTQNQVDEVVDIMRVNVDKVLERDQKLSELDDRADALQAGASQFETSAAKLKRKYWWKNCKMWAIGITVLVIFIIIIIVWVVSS
UniProt P11717, residues 41-2491: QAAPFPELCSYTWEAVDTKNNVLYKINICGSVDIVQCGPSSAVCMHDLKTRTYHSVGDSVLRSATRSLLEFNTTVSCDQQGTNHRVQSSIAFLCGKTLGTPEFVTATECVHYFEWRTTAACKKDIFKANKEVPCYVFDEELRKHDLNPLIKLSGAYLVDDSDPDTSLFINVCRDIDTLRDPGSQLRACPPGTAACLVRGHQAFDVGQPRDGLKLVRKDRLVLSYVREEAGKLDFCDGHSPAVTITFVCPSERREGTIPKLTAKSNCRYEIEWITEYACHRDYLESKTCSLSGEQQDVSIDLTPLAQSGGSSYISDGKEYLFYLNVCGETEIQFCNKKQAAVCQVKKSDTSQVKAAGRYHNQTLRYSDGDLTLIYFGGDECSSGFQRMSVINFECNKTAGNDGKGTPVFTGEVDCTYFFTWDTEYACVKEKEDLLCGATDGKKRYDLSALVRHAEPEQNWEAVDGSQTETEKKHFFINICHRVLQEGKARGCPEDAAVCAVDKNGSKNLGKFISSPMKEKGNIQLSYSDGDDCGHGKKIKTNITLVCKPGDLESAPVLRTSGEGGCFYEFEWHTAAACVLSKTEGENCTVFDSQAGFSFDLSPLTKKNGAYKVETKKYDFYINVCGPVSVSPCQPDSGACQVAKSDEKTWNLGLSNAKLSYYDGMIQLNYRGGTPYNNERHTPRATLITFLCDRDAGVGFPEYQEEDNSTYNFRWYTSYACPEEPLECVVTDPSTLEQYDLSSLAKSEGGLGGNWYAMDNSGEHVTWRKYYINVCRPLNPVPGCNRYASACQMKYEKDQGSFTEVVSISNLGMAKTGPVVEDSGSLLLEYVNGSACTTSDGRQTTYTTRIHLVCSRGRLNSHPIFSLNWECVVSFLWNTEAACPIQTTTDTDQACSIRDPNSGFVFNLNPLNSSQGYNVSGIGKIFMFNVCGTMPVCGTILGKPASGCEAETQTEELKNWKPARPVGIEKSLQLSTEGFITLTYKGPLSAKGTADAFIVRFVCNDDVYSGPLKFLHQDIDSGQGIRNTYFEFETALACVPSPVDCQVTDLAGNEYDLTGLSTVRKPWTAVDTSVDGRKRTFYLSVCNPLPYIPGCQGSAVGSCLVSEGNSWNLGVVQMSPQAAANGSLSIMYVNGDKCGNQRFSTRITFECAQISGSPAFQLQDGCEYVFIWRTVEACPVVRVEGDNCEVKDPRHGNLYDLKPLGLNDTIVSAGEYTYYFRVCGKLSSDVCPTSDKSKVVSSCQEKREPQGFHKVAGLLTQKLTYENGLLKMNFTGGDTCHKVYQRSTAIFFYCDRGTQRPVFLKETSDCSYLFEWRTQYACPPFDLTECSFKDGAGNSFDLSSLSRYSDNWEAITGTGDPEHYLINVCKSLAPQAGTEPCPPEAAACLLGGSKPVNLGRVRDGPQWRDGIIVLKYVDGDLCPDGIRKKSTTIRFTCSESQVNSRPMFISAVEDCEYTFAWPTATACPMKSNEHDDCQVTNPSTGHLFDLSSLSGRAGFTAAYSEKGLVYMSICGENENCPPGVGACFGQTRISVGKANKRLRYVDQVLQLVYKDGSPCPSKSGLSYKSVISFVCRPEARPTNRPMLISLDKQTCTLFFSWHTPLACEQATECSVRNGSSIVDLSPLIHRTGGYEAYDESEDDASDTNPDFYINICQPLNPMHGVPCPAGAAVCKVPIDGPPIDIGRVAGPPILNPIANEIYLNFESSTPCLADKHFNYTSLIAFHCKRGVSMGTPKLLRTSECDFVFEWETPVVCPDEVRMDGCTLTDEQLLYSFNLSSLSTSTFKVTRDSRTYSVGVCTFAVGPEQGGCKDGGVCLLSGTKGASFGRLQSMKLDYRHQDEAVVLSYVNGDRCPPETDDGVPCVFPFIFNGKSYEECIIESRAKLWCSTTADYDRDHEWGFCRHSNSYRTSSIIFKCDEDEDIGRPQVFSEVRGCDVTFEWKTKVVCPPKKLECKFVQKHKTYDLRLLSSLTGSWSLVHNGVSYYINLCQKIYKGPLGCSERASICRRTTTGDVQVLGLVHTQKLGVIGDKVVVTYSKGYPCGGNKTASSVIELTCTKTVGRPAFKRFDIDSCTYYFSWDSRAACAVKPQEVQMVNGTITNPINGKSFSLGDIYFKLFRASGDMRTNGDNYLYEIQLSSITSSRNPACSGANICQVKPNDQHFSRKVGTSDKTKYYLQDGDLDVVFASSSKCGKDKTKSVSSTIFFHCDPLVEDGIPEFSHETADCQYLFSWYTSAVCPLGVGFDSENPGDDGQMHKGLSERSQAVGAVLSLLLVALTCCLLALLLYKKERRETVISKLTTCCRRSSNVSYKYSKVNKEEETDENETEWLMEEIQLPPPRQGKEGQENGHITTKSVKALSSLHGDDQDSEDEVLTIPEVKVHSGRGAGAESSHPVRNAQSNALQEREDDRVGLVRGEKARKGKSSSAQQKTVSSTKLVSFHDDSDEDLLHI

In PMC10317969:

T1: CLN3-innHA (UniProt Q13286)
T1 sequence: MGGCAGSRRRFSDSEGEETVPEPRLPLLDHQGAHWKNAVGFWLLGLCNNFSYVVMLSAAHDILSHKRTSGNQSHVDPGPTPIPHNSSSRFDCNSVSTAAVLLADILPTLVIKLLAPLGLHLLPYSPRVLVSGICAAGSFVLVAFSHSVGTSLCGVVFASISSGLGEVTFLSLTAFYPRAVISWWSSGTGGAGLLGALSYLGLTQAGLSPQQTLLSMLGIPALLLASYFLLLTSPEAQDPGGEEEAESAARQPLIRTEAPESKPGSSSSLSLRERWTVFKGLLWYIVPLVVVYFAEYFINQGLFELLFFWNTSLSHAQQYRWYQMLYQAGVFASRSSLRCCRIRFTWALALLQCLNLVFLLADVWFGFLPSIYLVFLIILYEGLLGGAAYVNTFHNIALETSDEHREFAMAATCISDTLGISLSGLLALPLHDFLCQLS

B1: Snapin (protein, UniProt O95295 1-136)
chain: MAGAGSAAVSGAGTPVAGPTGRDLFAEGLLEFLRPAVQQLDSHVHAVRESQVELREQIDNLATELCRINEDQKVALDLDPYVKKLLNARRRVVLVNNILQNAQERLRRLNHSVAKETARRRAMLDSGIYPPGSPGK

These molecules were tested against T1, CLN3-innHA (assay: affinity purification with mass spectrometry; anti-HA immunoprecipitation from ARPE19-pLVX-CLN3innHA cells induced 24 h with 1 ug/ml doxycycline, fed and prolonged starvation (16 h serum+glutamine starvation); cells cross-linked with 1 mg/mL DSP before lysis in RIPA buffer; label-free MS, hits enriched against cells not expressing the HA tag).

Molecule | binding
Lyspersin (from UniProt Q96GS4) | binds
PI4K2A (from UniProt Q9BTU6 1-479) (enzyme) | binds
VAMP3 (from UniProt Q15836 1-100) | binds
VPS26 (human (endogenous in ARPE19)) | binds
cation independent-mannose 6-phosphate receptor (CI-M6PR) (from UniProt P11717 41-2491) | binds
B1 | binds

No constants are given. Whether binding was seen depends on the method and setting. In cells and extracts the contact can be indirect. A yes stands for co-enrichment or nearness to the bait. Other partners may have been found.
